According to the supplement of paper PMC11659162:
“And” between values parts separate entries of the source, which are not always exact repeats. Equal values may be shown once. ± gives the standard deviation of the averaged measurements. Some of the results follow. Single values of this set are uncertain.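 The cells are a human neuroglioma line carrying a green fluorescent autophagy reporter.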

Tests used:
H4 GFP-LC3 [1] = assay: cell viability (scaled to control) (fraction of control); higher = more viable cells
H4 GFP-LC3 [2] = assay: ACBP immunofluorescence intensity (scaled to control) (AU (scaled)); higher = more intracellular ACBP/DBI

Structure (SMILES)	cell viability (H4 GFP-LC3 [1]; 6 h)	cell viability (H4 GFP-LC3 [1]; 24 h)	ACBP immunofluorescence intensity (H4 GFP-LC3 [2]; 6 h)	ACBP immunofluorescence intensity (H4 GFP-LC3 [2]; 24 h)
C[C@@]1(S)[C@H](O)[C@@H](COP(=O)(O)OP(=O)(O)OP(=O)(O)O)O[C@H]1n1cnc2c(N)ncnc21 (5 µM)	1.04	1.19	0.982	0.797
O=c1ccn([C@@H]2O[C@H](COP(=O)(O)OP(=O)(O)O)[C@@H](O)[C@H]2O)c(=O)[nH]1 (5 µM)	0.841	1.26	0.998	0.47
CN1[C@@H](CC(=O)c2ccccc2)CCC[C@H]1C[C@H](O)c1ccccc1 (5 µM)	0.98	1.3	0.871	0.569
C[C@]12C[C@H](O)[C@H]3[C@@H](CCC4=CC(=O)CC[C@@]43C)[C@@H]1CC[C@@H]2C(=O)CO (5 µM)	1.15	0.98	0.785	0.74
Nc1ncnc2c1ncn2[C@@H]1O[C@H](COP(=O)(O)OP(=O)(O)O)[C@@H](O)[C@H]1O (5 µM)	0.801	1.15	0.998	0.669
CSCCC(NC(=O)C(Cc1ccccc1)NC(=O)C(Cc1cnc[nH]1)NC(=O)CNC(=O)C(NC(=O)C(C)NC(=O)C(Cc1c[nH]c2ccccc12)NC(=O)C(CC(C)C)NC(=O)C(CC(N)=O)NC(=O)CN)C(C)O)C(N)=O (stereo not given) (5 µM)	1.12	1.23	0.95	0.824
CC(C)NCC(O)COc1ccc(CC(N)=O)cc1 (racemic) (5 µM)	0.722	0.994	0.95	0.886
COc1ccccc1N1CCN(CC(O)COc2cccc3ccccc23)CC1 (stereo not given) (5 µM)	0.926	1.06	0.844	0.48
CCN1CCC[C@H]1CNC(=O)c1c(OC)ccc(Br)c1OC (5 µM)	0.887	1.29	0.89	0.729
COc1ccccc1N1CCN(CCCCNC(=O)c2ccc(-c3ccc(C(C)=O)cc3)cc2)CC1 (5 µM)	0.862	1.15	0.919	0.839
CC1CCN(CCCC(=O)c2ccc(F)cc2)CC1 (5 µM)	0.63	0.801	0.984	0.268
NNC(=O)c1ccncc1 (5 µM)	0.85	0.746	0.981	0.278
CNCC(O)c1ccc(O)c(O)c1 (stereo not given) (5 µM)	1.18	0.862	0.311	0.687
CNCCCC12CCC(c3ccccc31)c1ccccc12 (5 µM)	0.696	0.879	0.945	0.767
N[C@@H](CC(=O)O)C(=O)O (5 µM)	1.07 and 1.16	1.07 and 1.1	0.455 and 0.863	0.829 and 0.761
CC#C[C@]1(O)CC[C@H]2[C@@H]3CCC4=CC(=O)CCC4=C3[C@@H](c3ccc(N(C)C)cc3)C[C@@]21C (5 µM)	0.998	0.973	0.186	0.546
Clc1ccc2c(c1)C(N1CCNCC1)=Nc1ccccc1O2 (5 µM)	0.435	0.958	0.918	0.302
CSc1ccc2c(c1)C(N1CCN(C)CC1)Cc1ccccc1S2 (stereo not given) (5 µM)	0.621	1.03	0.998	0.723
O=C(Nc1ccccc1)N[C@@H]1C[C@@H](C(=O)O)Nc2cc(Cl)cc(Cl)c21 (5 µM)	1.07	1.41	0.769	0.742
Cc1ccc(O)c(N=Nc2ccccc2)n1 (5 µM)	0.913	1.33	0.924	0.686
CN1CCN(C2=Nc3ccccc3Oc3ccc(Cl)cc32)CC1 (5 µM)	0.826	1.17	0.949	0.771
O=C(O)c1cc(=O)c2ccccc2[nH]1 (5 µM)	1.08	0.995	0.861	0.389

Some of the entries above, set out differently.
Structure (SMILES),cell viability (H4 GFP-LC3 [1]; 6 h),cell viability (H4 GFP-LC3 [1]; 24 h),ACBP immunofluorescence intensity (H4 GFP-LC3 [2]; 6 h),ACBP immunofluorescence intensity (H4 GFP-LC3 [2]; 24 h)
NNC(=O)c1ccncc1 (5 µM),0.85,0.746,0.981,0.278
CNCC(O)c1ccc(O)c(O)c1 (stereo not given) (5 µM),1.18,0.862,0.311,0.687

Following part

Structure (SMILES)	cell viability (H4 GFP-LC3 [1]; 6 h)	cell viability (H4 GFP-LC3 [1]; 24 h)	ACBP immunofluorescence intensity (H4 GFP-LC3 [2]; 6 h)	ACBP immunofluorescence intensity (H4 GFP-LC3 [2]; 24 h)
COc1ccc(C(OCCN2CCC[C@H](C(=O)O)C2)(c2ccc(OC)cc2)c2ccc(OC)cc2)cc1 (5 µM)	0.927	1.08	0.999	0.981
NC(N)=NC(N)=Nc1ccccc1 (5 µM)	0.787	0.905	0.919	0.56
N[C@@H](Cc1cc(CP(=O)(O)O)cc(-c2ccccc2Cl)c1)C(=O)O (5 µM)	1.07	1.32	0.66	0.752
CC12CC3CC(C)(C1)CC(N)(C3)C2 (5 µM)	1.17	1.12	0.385	0.532
C[N+]1(Cc2ccccc2)CCC(C(=O)OCC2CCCC2)CC1 (stereo not given) (5 µM)	1	1.38	0.957	0.624
NC(=O)CC[C@@H]1NC(=O)[C@H](Cc2ccccc2)NC(=O)[C@H](Cc2ccc(O)cc2)NC(=O)[C@@H](N)CSSC[C@@H](C(=O)N2CCC[C@H]2C(=O)N[C@@H](CCCN=C(N)N)C(=O)NCC(N)=O)NC(=O)[C@H](CC(N)=O)NC1=O (5 µM)	1.16	0.891	0.548	0.87
CC(COc1ccccc1)N(CCCl)Cc1ccccc1 (stereo not given) (5 µM)	0.744	0.71	0.908	0.53
O=C(O)C1=CCNCC1 (5 µM)	0.874	0.995	0.996	0.94
CN1CCCCC1CCN1c2ccccc2Sc2ccc([S+](C)[O-])cc21 (stereo not given) (5 µM)	0.815 ± 0.071	1.36 ± 0.12	0.975 ± 0.011	0.824 ± 0.039
N[C@H](CC(=O)O)C(=O)O (5 µM)	1.01	1.27	0.941	0.77
CC(CCc1ccc(O)cc1)NCCc1ccc(O)c(O)c1 (stereo not given) (5 µM)	0.944	0.924	0.77	0.334
NCC=CC(=O)O (stereo in doubt) (5 µM)	0.937	1.13	0.889	0.787
COc1ccc2[nH]cc(CCNC(C)=O)c2c1 (5 µM)	0.979	0.884	0.771	0.68
COc1ccccc1N1CCN(CCCCN2C(=O)c3ccccc3C2=O)CC1 (5 µM)	0.896	1.09	0.681	0.578
C[C@@H]1C[C@H]2[C@@H]3CCC4=CC(=O)C=C[C@]4(C)[C@@]3(F)[C@@H](O)C[C@]2(C)[C@@]1(O)C(=O)CO (5 µM)	1.18	1.24	0.682	0.185
Cc1cc(C(C)(C)C)c(O)c(C)c1CC1=NCCN1 (5 µM)	0.768	0.876	0.952	0.478
NCCCNCCCCNCCCN (5 µM)	0.8	0.364	0.987	0.491
CC(N)(C(=O)O)c1ccc(-c2nnn[nH]2)cc1 (racemic) (5 µM)	1.03	1.36	0.827	0.557
CC(C)C[C@H](N)C(=O)N[C@H](C(=O)N[C@H](C(=O)N[C@@H](Cc1ccc(O)cc1)C(=O)N1CCC[C@H]1C(=O)N[C@@H](Cc1c[nH]c2ccccc12)C(=O)N[C@H](C(=O)N[C@@H](CCC(N)=O)C(=O)N[C@@H](CCCN=C(N)N)C(=O)O)[C@@H](C)O)C(C)C)C(C)C (5 µM)	1.19	0.903	0.577	0.593
Fc1ccc(N2CCN(CCC3OCCc4ccccc43)CC2)cc1 (stereo not given) (5 µM)	0.735	1.26	0.843	0.365
Nc1ncnc2c1ncn2C1OC(COP(=O)(O)O)C(O)C1O (stereo not given) (5 µM)	0.877	1.15	1	0.867
CCOC(OCC)P(=O)(O)CCCNCc1ccc(Cl)c(Cl)c1 (5 µM)	0.913	1.04	0.895	0.489

Structure (SMILES)	cell viability (H4 GFP-LC3 [1]; 6 h)	cell viability (H4 GFP-LC3 [1]; 24 h)	ACBP immunofluorescence intensity (H4 GFP-LC3 [2]; 6 h)	ACBP immunofluorescence intensity (H4 GFP-LC3 [2]; 24 h)
CC(N)(C(=O)O)c1ccc(P(=O)(O)O)cc1 (racemic) (5 µM)	0.906	0.87	0.864	0.338
Oc1cc2c(cc1O)C(c1ccccc1)CNCC2 (stereo not given) (5 µM)	0.91	1.11	0.785	0.472
Cn1c(=O)c2[nH]cnc2n(C)c1=O (5 µM)	1.03	1.07	0.865	0.546
COc1cccc(OC)c1OCCNCC1COc2ccccc2O1 (stereo not given) (5 µM)	0.945	1.1	0.772	0.45
N=C(N)N/N=C/c1c(Cl)cccc1Cl (5 µM)	0.592	0.965	0.935	0.646
CN1[C@@H]2CC[C@H]1C[C@@H](OC(=O)c1c[nH]c3ccccc13)C2 (5 µM)	0.792	1.09	0.995	0.559
CC(=O)N1CCN(C)CC1 (5 µM)	1.09	1.32	0.945	0.758
Nc1nc2ccc(OC(F)(F)F)cc2s1 (5 µM)	0.964	1.05	0.903	0.807
N#Cc1ccccc1OCC(O)CNCCNC(=O)Nc1ccccc1 (stereo not given) (5 µM)	0.884	0.872	0.853	0.434
Cn1c(=O)[nH]c2ncn(C)c2c1=O (5 µM)	1.02	1.06	0.955	0.738
CC(C)C[C@H](NC(=O)[C@H](Cc1ccccc1)NC(=O)CNC(=O)CNC(=O)[C@@H](N)Cc1ccc(O)cc1)C(=O)N[C@@H](CCCN=C(N)N)C(=O)N[C@@H](CCCN=C(N)N)C(=O)N[C@@H](CCC(N)=O)C(=O)N[C@@H](Cc1ccccc1)C(=O)N[C@@H](CCCCN)C(=O)N[C@H](C(=O)N[C@H](C(=O)[C@H](C(=O)O)[C@@H](C)O)C(C)C)C(C)C (5 µM)	1	1.03	0.777	0.722
CN(C)CCCN1c2ccccc2CCc2ccccc21 (5 µM)	0.594	0.872	0.888	0.236
C[N+](C)(C)CC[N+]1(C)Cc2c(Cl)c(Cl)c(Cl)c(Cl)c2C1 (5 µM)	1	0.969	0.908	0.544
CCCN(CCC)CCc1cccc2c1CC(=O)N2 (5 µM)	0.796	1.32	0.985	0.823
NC(CO)C(=O)O (racemic) (5 µM)	1.14	0.691	0.74	0.627
N=C(N)SCCc1c[nH]cn1 (5 µM)	1.09	0.997	0.863	0.479
O=C1CC2(CCCC2)CC(=O)N1CCCCN1CCN(c2ncccn2)CC1 (5 µM)	0.928	0.986	0.961	0.792
CN1CCc2cccc3c2[C@H]1Cc1ccc(O)c(O)c1-3 (5 µM)	0.927	1.12	0.722	0.51
CC(C)NCC(O)COc1cccc2[nH]ccc12 (stereo not given) (5 µM)	0.871	0.92	0.939	0.622
CN(C)CCCSc1ccccc1NC(=O)/C=C/c1ccccc1 (5 µM)	0.797	1.11	0.956	0.733
CC(C)NC[C@H](O)COc1cccc2[nH]ccc12 (5 µM)	0.888	0.797	0.905	0.462
